Laboratory results taken from article PMC7265490.

Protein sequences, listed by entry. Tags and fused reporters are not part of them. Lines headed by an entry give the natural chain unless they say otherwise; changes in a name come on top.
UniProt Q9UKV8: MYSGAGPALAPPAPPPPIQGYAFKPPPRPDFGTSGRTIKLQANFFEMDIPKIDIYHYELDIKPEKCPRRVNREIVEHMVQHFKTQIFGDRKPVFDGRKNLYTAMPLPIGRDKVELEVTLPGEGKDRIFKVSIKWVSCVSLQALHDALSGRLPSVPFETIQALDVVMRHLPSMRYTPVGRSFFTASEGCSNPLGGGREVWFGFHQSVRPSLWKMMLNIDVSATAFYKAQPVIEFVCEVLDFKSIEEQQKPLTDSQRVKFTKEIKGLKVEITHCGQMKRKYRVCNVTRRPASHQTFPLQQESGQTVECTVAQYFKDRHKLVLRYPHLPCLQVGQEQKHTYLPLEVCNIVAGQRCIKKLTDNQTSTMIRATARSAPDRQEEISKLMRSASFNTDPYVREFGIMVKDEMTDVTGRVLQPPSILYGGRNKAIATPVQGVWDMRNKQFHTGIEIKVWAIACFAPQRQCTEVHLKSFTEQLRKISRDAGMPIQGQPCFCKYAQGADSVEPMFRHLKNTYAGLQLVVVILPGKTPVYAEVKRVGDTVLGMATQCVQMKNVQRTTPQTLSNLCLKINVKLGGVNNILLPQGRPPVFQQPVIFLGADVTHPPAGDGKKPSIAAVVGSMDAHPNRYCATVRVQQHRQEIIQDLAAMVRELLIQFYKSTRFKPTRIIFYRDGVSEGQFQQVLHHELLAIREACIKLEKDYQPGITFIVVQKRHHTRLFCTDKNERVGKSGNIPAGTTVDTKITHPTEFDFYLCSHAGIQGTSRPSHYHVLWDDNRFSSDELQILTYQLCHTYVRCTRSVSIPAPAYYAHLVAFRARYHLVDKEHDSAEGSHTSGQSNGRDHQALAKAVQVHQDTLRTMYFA

Target: FLAG-tagged AGO2-ΔPAZ (AGO2 with a complete PAZ domain deletion) (UniProt Q9UKV8)
Assay: co-IP; FLAG-tagged AGO2 constructs or GFP transfected into HEK293T; lysis in modRIPA buffer 48 h after transfection; anti-FLAG M2 magnetic beads, 4 °C overnight; washed five times with TBS; beads with or without RNase A/T1 (20 min, room temperature); Western blot for TUT4, TUT7 and AGO2

B1: endogenous TUT7 (ZCCHC6/TENT3B/PAPD6) (enzyme, UniProt Q5VYS8 1-1495)
chain: MGDTAKPYFVKRTKDRGTMDDDDFRRGHPQQDYLIIDDHAKGHGSKMEKGLQKKKITPGNYGNTPRKGPCAVSSNPYAFKNPIYSQPAWMNDSHKDQSKRWLSDEHTGNSDNWREFKPGPRIPVINRQRKDSFQENEDGYRWQDTRGCRTVRRLFHKDLTSLETTSEMEAGSPENKKQRSRPRKPRKTRNEENEQDGDLEGPVIDESVLSTKELLGLQQAEERLKRDCIDRLKRRPRNYPTAKYTCRLCDVLIESIAFAHKHIKEKRHKKNIKEKQEEELLTTLPPPTPSQINAVGIAIDKVVQEFGLHNENLEQRLEIKRIMENVFQHKLPDCSLRLYGSSCSRLGFKNSDVNIDIQFPAIMSQPDVLLLVQECLKNSDSFIDVDADFHARVPVVVCREKQSGLLCKVSAGNENACLTTKHLTALGKLEPKLVPLVIAFRYWAKLCSIDRPEEGGLPPYVFALMAIFFLQQRKEPLLPVYLGSWIEGFSLSKLGNFNLQDIEKDVVIWEHTDSAAGDTGITKEEAPRETPIKRGQVSLILDVKHQPSVPVGQLWVELLRFYALEFNLADLVISIRVKELVSRELKDWPKKRIAIEDPYSVKRNVARTLNSQPVFEYILHCLRTTYKYFALPHKITKSSLLKPLNAITCISEHSKEVINHHPDVQTKDDKLKNSVLAQGPGATSSAANTCKVQPLTLKETAESFGSPPKEEMGNEHISVHPENSDCIQADVNSDDYKGDKVYHPETGRKNEKEKVGRKGKHLLTVDQKRGEHVVCGSTRNNESESTLDLEGFQNPTAKECEGLATLDNKADLDGESTEGTEELEDSLNHFTHSVQGQTSEMIPSDEEEEDDEEEEEEEEPRLTINQREDEDGMANEDELDNTYTGSGDEDALSEEDDELGEAAKYEDVKECGKHVERALLVELNKISLKEENVCEEKNSPVDQSDFFYEFSKLIFTKGKSPTVVCSLCKREGHLKKDCPEDFKRIQLEPLPPLTPKFLNILDQVCIQCYKDFSPTIIEDQAREHIRQNLESFIRQDFPGTKLSLFGSSKNGFGFKQSDLDVCMTINGLETAEGLDCVRTIEELARVLRKHSGLRNILPITTAKVPIVKFFHLRSGLEVDISLYNTLALHNTRLLSAYSAIDPRVKYLCYTMKVFTKMCDIGDASRGSLSSYAYTLMVLYFLQQRNPPVIPVLQEIYKGEKKPEIFVDGWNIYFFDQIDELPTYWSECGKNTESVGQLWLGLLRFYTEEFDFKEHVISIRRKSLLTTFKKQWTSKYIVIEDPFDLNHNLGAGLSRKMTNFIMKAFINGRRVFGIPVKGFPKDYPSKMEYFFDPDVLTEGELAPNDRCCRICGKIGHFMKDCPMRRKVRRRRDQEDALNQRYPENKEKRSKEDKEIHNKYTEREVSTKEDKPIQCTPQKAKPMRAAADLGREKILRPPVEKWKRQDDKDLREKRCFICGREGHIKKECPQFKGSSGSLSSKYMTQGKASAKRTQQES
**Q.** With B1 as the binder, how does the binding read?
**A.** binds

These are yes or no findings as the source states them, for the method shown. In cells and extracts the contact can be indirect. Binding calls can cover weak binding; strength is not graded here.
